Measurements from “University of Dundee, Small-Polar-MMV Screening Library” (2021), ChEMBL document CHEMBL3988442.

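Viability assay of Plasmodium falciparum sporozoites; the read-out is not stated. The concentration is filed as 10 mM, unlikely as a test dose, so the dose is not known. The record gives no direction; compounds that gave an IC50 in retests scored well above the rest, so higher reads as lower viability. Strong results were mostly tested again. Of about 34,000 compounds tested this way, about 280 (0.84%) reached 50% or more in at least one test.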

Each number is a percent effect as filed. How 0% and 100% were set is not recorded. Most values in the screen are low, and negative values occur. Compounds were drawn at random from those tested, without regard to their results. Two or more numbers in one place are separate tests of the same structure; such repeats can differ widely.

compound,effect
CC(=O)N1CCN(c2ccnc(C)n2)CC(COc2ccccc2)C1 (centres undefined),3.664
CN(C)S(=O)(=O)N1CC[C@]2(C[C@H](Oc3cccnc3)CO2)C1.O=C(O)C(F)(F)F,-16.89
CC(NCc1cccnc1)c1cc2c(cc1Br)OCCO2 (centres undefined),-2.487
Cc1cccc(CN(C(=O)CS(C)(=O)=O)C(C)C)c1,-2.957
[H][C@]12CCC[C@@]1(COC)CN(C(=O)COc1ccccc1OC)C2,2.35
COC(=O)c1sccc1S(=O)(=O)N1CCC(Oc2ncccc2Cl)CC1,5.077
O=C1NCCN1C1CCN(Cc2ccccn2)CC1,-6
Cn1cc(CN2CCCC23CCN(C(=O)c2ccccn2)CC3)cn1.O=C(O)C(F)(F)F,10.71
N[C@@H]1c2ccccc2C2(CCN(C(=O)c3cncc(Cl)c3)CC2)[C@H]1O,-0.1065
Cc1n[nH]c(C2CN(CC(=O)NCc3ccco3)CCO2)n1 (centres undefined),10.94
CN(CC1(CO)CCC1)c1nc2c(c(=O)[nH]1)Cc1ccccc1OC2,8.869 and 35.71
CCN(C)C1COC2(CCN(C(=O)c3ccc(Cl)cc3)CC2)C1.O=C(O)C(F)(F)F (centres undefined),-8.041
COc1cccc(-n2nnc(C(=O)N3CCN(C(C)=O)CC3)c2C)c1,6.024
OC1(CN2CCC(Cc3ncccn3)CC2)CCOCC1,2.284
CC(C)CNC(=O)C1=NOC2(CCN(Cc3ccoc3)C2)C1 (centres undefined),-1.733
Cn1cc(CN2CCc3ccc(=O)n(CC4CC4)c3CC2)cn1,0.4281
CN1C(=O)CCCC12CCCN(C(=O)c1ccc3c(c1)OCO3)C2 (centres undefined),-1.805
CCN(CC1CCCN(CCc2cccc(OC)c2)C1)C(=O)CCSC (centres undefined),-6.667
CCn1cnnc1CNC(=O)N1CCN(c2cccc(C)c2)CC1,4.294
COCCNC(=O)NCc1cccc(-n2ccnc2)c1,-1.544
CCOc1ccccc1OC1CCN(C(=O)c2ccc(=O)[nH]n2)CC1,-4.287
c1ccc(OCCCN2CCN(c3ccc4nncn4n3)CC2)cc1,5.233
Cc1ncsc1CCC(=O)NCc1cc2n(n1)CCN(C(=O)N(C)C)C2,-11.42
Cc1nc2n(n1)CC(NCc1ccc(Cl)c3cccnc13)CC2 (centres undefined),-7.699
CNc1cc(CCNS(=O)(=O)c2ccccc2)nc(-c2ccccn2)n1,-5.256
CC(C)c1nc(CN(CC(N)=O)C(C)C)cs1,1.873
CCn1cc(-c2nccnc2C2CCCN(C(C)=O)C2)cn1 (centres undefined),8.679
CC(=O)N1CCn2c(COCc3csc(C)n3)cnc2C1C (centres undefined),1.623
CCN(CC)CCSc1ncnc2[nH]ncc12,-16.98
CC(C)CNC(=O)c1ccc2nnc(C3CCN(S(C)(=O)=O)C3)n2c1 (centres undefined),4.362
O=C(NCCC1COc2ccccc2O1)c1ccc(-c2cn[nH]c2)nc1 (centres undefined),-5.692
O=C(O)C(F)(F)F.[H][C@@]12C[C@H](C(=O)Nc3cccnc3)[C@@]([H])(CN(C(=O)NC)C1)O2,-6.271
Cc1cc(-c2cnc(C(C)C)nc2CN(C)C(=O)c2ccccn2)on1,-11.19
COc1cccc(CNc2cc(N3CCCC3CO)ncn2)n1 (centres undefined),-0.4044
O=C1CN(S(=O)(=O)c2ccc(F)cc2)CC(O)CN1CC1CC1 (centres undefined),-40.05
CSCc1noc(CNC2CCCC(C)(C)C2)n1 (centres undefined),-30.31
COCc1noc(CN2CC(=O)N(C)c3ccccc3C2=O)n1,2.3
[H][C@@]12CN(Cc3cccnc3)C[C@]1([H])CN(C(=O)Cc1cccc(F)c1)C2,4.291
CCNC(=O)N1CCc2ccc(NC(=O)NCC3CC3)cc21,-11.62 and -8.597
Cc1ccc(C2(CN(C)Cc3snnc3C)CCNCC2)nc1,-20.17
O=C(NCCCO)c1cnc(-c2ccccc2)nc1O,-8.71
O=C(CCc1ccccc1Cl)NS(=O)(=O)c1ccc2c(c1)OCCO2,8.573
Cc1cnc(CC2COCCN(C(=O)CN3CCOCC3)C2)cn1 (centres undefined),0.1937
C=Cn1cc(CN2CCC(c3ncc(Cl)cc3S(C)(=O)=O)CC2)c(C)n1,14.31
CC1=CC(C)(C)N(CN2C(=O)c3ccccc3C2=O)c2ccccc21,6.9
CCc1nc2ccccc2c(=O)n1CC1(O)CCN(CC(=O)OC)CC1,-0.3271
Cc1ccc2c(c1)OCCCC2NCc1nnc2n1CCCCC2 (centres undefined),-71.97
Cc1cc(C)c(CNC(=O)NC2COc3ccccc3C2)c(=O)[nH]1 (centres undefined),-16.56
COc1c(C(=O)N2CCC(CSc3ccccc3)C2)c(C)nn1C (centres undefined),3.885
Cl.O=C(NCC1CCCO1)c1cc(-c2ccncc2)c2cnccc2n1 (centres undefined),3.057
COc1ccccc1C(=O)N(C)Cc1nnc2ccccn12,8.946
Cc1noc(C(C)Nc2ccc3oc(C)nc3c2)n1 (centres undefined),1.424
CCc1nc(CN(C)C2CCN(Cc3nnc(C4CCC4)o3)C2)no1 (centres undefined),4.456
Cn1ccnc1C(NCc1ccc(Br)cc1)c1ccccc1 (centres undefined),-0.8043
Cc1ccc(SCC2CNc3nc4ccccc4c(=O)n32)c(C)c1 (centres undefined),11.22
Cc1nn(C)c(N2CCOCC2)c1CNC1CCOc2ccccc21 (centres undefined),8.141 and -21.01 and -18.37
COCC(=O)N1CCC(c2cc3nc(C)cc(C(F)(F)F)n3n2)CC1,15.22
CC(C)N1CCC2(CC1)CC(NS(C)(=O)=O)c1ccccc1O2.O=C(O)C(F)(F)F (centres undefined),5.175
CSc1ccc(C(CNC(C)=O)N2CCc3sccc3C2)cc1 (centres undefined),26.59
CCCn1nc(-c2nc(COC)no2)ccc1=O,-26.29
COCCCN1Cc2cccc(NC(=O)c3cc(F)cc(F)c3)c2C1,-15.93 and -21.99 and -27.51
O=C(O)C(F)(F)F.O=C(O)C(F)(F)F.[H][C@@]12CCN(Cc3ccc(C)o3)C[C@]1([H])OCCN(Cc1cccnc1)C2=O,2.02
Cc1noc(C)c1CN(C)CC(=O)N1CCc2sccc2C1,2.463
Cl.Clc1ccccc1CN1CCc2nc(C3CCCNC3)ncc2C1 (centres undefined),2.109
[H][C@@]12CCN(S(C)(=O)=O)C[C@@]1([H])O[C@@H](c1ccnc(C)n1)C2,3.947
Cc1cccc(C(=O)N2CCCn3cnc(CN4CCCC4=O)c3C2)n1,2.193
Cc1ccccc1N1CCCN(C(=O)c2cn(C)c3ccccc23)CC1,4.145 and 0.3579
O=C(CN1CCCC1Cn1cccn1)NC1CCOCC1 (centres undefined),-6.471
Cc1oc(C)c(C(=O)NCc2ccccc2S(=O)(=O)N(C)C)c1C,-5.606